Measurements reported in PubChem BioAssay AID504774 (Drosophila RNAi Screening Center, 2011).
In all, the deposit lists about 23,000 reagents; this is a random part of those with a known target gene and a result. 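Values are quantile-normalised luminescence on an arbitrary scale; higher means more cells surviving MMS.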 A plus sign joins genes that one reagent is predicted to hit.

Screen: 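Knock-downs that shift viability of MMS-exposed cells relative to untreated ones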 (primary screen)
Cell system: Drosophila Kc167 cells
Knock-down reagent: long dsRNA against Drosophila genes, about 0.25 µg dsRNA per well
Time to read-out: about 6 days: 3 days knock-down, then 3 days with or without MMS
Treatment: methyl methanesulphonate 0.004% (w/v) for 3 days after knock-down
Read-out: 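Viability in wells given MMS, read as ATP luminescence, normalised by quantiles plate by plate and averaged across replicates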
Reading the numbers: mean viability with MMS and viability with MMS: higher = more surviving cells after MMS

target gene,amplicon,mean viability with MMS,"viability with MMS, replicate 1","viability with MMS, replicate 2"
CG31717,DRSC01121,3.88e6,4.70e6,3.89e6
rad50,DRSC04523,3.48e6,3.87e6,4.04e6
Tgt,DRSC00672,3.48e6,3.92e6,3.90e6
CG15046,DRSC19622,3.29e6,3.64e6,3.72e6
CG34241,DRSC09157,3.52e6,3.97e6,4.03e6
Vhl,DRSC07716,3.72e6,4.27e6,4.20e6
GatC + PolG2,DRSC03312,3.52e6,4.09e6,3.89e6
Mco4,DRSC20061,3.61e6,4.21e6,3.97e6
CG7896,DRSC16335,3.65e6,4.18e6,4.08e6
Hsp110,DRSC11186,3.34e6,3.78e6,3.75e6
Pi3K68D,DRSC11253,3.49e6,4.00e6,3.90e6
CG17380,DRSC15230,3.53e6,3.99e6,4.00e6
CG9853,DRSC12343,3.57e6,4.06e6,4.03e6
CG9853,DRSC22840,3.39e6,3.96e6,3.82e6
Pdss2,DRSC11625,3.53e6,4.04e6,3.95e6
Ddx56,DRSC20567,3.55e6,4.09e6,3.96e6
east,DRSC18770,3.35e6,3.77e6,3.82e6
CG11398,DRSC18625,3.50e6,3.97e6,3.97e6
COX7A,DRSC16514,3.48e6,3.78e6,4.14e6
Cpr47Eg,DRSC07330,3.50e6,4.04e6,3.80e6
rk,DRSC03602,3.50e6,3.96e6,4.01e6
mtg,DRSC16256,3.60e6,4.11e6,4.07e6
CG1246,DRSC08275,3.54e6,4.00e6,4.02e6
e(y)2b,DRSC12556,3.69e6,4.11e6,4.22e6
CG15561,DRSC15100,3.37e6,3.74e6,3.82e6
CG10300,DRSC14225,3.60e6,4.04e6,4.13e6
Atat,DRSC10392,3.41e6,3.82e6,3.94e6
CG42597,DRSC03681,3.49e6,3.99e6,3.93e6

Individual results from the entries so far:
Value for CG17380 [DRSC15230] under “viability with MMS, replicate 1”: 3.99e6
Value of Pdss2 [DRSC11625] under “viability with MMS, replicate 2”: 3.95e6
For “viability with MMS, replicate 2”, Mco4 [DRSC20061] has 3.97e6
